In paper doi:10.1101/2023.01.22.525045:
No constants are given. Whether binding was seen depends on the method and setting. In cells and extracts the contact can be indirect. Some entries that bind do so weakly or less than the wild type.

The chains behind the UniProt entries cited, without tags or fusion partners. Where a name states a change or a piece, a line headed by the entry shows the natural chain unless it says otherwise. A line that says so, or that is headed by a name, gives the form on record, which may keep a tag or linker.
UniProt P05787: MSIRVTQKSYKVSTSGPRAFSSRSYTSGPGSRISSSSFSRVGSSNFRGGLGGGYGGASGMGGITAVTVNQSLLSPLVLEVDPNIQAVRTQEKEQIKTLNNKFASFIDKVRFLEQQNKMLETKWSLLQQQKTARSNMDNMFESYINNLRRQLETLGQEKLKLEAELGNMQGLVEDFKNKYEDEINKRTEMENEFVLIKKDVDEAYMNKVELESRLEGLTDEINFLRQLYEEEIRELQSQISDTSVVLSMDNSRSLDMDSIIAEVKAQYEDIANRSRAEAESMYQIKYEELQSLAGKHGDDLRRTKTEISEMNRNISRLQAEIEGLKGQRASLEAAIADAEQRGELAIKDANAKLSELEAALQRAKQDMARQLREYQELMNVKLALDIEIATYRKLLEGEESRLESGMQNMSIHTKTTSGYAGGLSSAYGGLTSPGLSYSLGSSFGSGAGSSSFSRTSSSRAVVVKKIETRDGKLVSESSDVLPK
S34-37A K8-GFP (P05787, form named): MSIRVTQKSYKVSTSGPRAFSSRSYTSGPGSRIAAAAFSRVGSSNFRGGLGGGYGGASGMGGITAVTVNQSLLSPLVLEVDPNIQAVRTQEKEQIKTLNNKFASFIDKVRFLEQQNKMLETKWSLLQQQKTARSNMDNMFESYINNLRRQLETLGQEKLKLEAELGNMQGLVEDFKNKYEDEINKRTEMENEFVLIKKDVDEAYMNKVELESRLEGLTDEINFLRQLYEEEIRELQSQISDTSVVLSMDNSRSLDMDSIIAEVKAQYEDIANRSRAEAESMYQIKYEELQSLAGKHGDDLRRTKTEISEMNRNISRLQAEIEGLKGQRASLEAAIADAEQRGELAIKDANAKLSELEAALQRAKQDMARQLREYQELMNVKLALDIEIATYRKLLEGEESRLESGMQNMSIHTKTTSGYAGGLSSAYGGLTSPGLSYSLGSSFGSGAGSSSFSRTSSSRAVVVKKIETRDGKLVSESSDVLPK
S34-37D K8-GFP (P05787, form named): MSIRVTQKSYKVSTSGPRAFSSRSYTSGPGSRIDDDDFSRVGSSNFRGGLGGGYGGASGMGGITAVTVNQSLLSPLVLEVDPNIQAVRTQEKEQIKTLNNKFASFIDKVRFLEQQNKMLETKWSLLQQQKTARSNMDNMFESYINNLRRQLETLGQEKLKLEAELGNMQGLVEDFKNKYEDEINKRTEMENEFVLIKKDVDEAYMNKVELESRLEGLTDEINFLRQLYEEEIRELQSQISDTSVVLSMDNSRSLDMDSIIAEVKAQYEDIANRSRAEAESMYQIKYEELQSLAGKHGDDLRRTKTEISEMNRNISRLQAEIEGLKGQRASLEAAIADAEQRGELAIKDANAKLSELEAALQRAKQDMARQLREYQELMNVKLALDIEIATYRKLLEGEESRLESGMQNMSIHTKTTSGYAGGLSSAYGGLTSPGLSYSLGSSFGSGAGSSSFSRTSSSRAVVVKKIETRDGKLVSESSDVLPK
UniProt Q96GD4: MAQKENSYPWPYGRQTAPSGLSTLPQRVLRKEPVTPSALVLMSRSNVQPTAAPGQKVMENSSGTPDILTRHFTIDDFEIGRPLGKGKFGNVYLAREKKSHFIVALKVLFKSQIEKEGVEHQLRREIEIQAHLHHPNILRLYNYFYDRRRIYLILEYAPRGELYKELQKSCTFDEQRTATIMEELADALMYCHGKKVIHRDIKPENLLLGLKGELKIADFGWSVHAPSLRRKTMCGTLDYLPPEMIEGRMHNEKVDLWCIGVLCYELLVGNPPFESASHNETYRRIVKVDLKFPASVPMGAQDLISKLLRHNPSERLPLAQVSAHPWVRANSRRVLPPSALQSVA

How the values were obtained:
Experiment in all cases: co-IP
S34-37A K8-GFP = S34-37A K8-GFP (UniProt P05787)
WT K8-GFP = WT K8-GFP (UniProt P05787)
S34-37D K8-GFP = S34-37D K8-GFP (UniProt P05787)

Measured: binding

Aurora B (from UniProt Q96GD4 1-344) (enzyme)
binds: S34-37A K8-GFP | WT K8-GFP | S34-37D K8-GFP
